Measurements taken from publication PMC9198438.
Results are given in words; binding and its absence hold for the method and conditions named. Binding seen in cells or lysates may run through a third protein. For part of these data: Where a sequence is shown, tags or fusion partners need not be part of it.

Chains of the proteins cited; added tags and fusions are not shown.
UniProt P23458: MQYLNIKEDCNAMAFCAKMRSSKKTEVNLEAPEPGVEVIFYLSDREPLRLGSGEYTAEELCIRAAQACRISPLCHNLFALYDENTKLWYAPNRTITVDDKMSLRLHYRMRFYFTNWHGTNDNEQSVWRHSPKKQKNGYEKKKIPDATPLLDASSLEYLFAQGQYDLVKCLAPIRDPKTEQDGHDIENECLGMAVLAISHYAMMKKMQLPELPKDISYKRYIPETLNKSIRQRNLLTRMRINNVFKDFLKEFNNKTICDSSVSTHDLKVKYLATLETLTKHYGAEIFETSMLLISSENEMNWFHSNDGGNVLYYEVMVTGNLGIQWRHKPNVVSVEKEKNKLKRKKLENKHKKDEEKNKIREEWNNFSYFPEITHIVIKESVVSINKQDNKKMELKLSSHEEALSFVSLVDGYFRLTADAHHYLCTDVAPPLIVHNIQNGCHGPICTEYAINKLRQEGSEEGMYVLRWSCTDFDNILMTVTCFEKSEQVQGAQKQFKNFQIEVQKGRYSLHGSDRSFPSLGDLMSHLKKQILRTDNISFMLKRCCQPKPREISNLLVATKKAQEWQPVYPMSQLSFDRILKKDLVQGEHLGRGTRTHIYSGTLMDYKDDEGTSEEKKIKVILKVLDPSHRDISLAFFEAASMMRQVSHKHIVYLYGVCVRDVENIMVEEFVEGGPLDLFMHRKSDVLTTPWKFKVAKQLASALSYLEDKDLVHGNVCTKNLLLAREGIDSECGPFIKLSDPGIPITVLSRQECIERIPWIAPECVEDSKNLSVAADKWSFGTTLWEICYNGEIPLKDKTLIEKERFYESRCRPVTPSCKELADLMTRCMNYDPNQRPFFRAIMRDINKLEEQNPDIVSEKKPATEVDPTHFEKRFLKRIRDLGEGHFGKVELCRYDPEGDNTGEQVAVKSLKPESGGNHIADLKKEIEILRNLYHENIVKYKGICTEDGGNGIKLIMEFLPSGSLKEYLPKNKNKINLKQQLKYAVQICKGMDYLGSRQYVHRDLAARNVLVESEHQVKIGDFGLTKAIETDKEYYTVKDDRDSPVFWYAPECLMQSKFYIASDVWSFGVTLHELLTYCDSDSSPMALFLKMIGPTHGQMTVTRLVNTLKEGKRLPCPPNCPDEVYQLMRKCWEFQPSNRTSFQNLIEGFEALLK
UniProt P42224: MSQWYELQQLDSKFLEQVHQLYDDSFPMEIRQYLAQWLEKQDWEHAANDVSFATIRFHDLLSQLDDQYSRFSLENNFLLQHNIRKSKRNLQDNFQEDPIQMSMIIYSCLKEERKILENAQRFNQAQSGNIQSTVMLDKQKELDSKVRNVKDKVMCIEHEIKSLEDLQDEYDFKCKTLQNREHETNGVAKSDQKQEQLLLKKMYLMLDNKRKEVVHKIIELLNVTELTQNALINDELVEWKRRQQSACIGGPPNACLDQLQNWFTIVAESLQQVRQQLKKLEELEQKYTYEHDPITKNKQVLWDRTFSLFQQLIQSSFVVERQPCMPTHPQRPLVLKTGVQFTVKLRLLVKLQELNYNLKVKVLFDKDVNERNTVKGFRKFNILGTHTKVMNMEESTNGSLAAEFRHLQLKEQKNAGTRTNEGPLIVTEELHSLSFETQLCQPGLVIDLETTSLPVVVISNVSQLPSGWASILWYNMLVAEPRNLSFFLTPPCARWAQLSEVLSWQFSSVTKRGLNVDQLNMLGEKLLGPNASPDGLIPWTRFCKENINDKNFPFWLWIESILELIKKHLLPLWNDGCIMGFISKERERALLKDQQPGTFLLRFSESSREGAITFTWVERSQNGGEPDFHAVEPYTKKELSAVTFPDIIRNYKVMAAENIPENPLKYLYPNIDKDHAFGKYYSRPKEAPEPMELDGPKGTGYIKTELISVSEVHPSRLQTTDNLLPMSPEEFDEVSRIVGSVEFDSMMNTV
UniProt P52630: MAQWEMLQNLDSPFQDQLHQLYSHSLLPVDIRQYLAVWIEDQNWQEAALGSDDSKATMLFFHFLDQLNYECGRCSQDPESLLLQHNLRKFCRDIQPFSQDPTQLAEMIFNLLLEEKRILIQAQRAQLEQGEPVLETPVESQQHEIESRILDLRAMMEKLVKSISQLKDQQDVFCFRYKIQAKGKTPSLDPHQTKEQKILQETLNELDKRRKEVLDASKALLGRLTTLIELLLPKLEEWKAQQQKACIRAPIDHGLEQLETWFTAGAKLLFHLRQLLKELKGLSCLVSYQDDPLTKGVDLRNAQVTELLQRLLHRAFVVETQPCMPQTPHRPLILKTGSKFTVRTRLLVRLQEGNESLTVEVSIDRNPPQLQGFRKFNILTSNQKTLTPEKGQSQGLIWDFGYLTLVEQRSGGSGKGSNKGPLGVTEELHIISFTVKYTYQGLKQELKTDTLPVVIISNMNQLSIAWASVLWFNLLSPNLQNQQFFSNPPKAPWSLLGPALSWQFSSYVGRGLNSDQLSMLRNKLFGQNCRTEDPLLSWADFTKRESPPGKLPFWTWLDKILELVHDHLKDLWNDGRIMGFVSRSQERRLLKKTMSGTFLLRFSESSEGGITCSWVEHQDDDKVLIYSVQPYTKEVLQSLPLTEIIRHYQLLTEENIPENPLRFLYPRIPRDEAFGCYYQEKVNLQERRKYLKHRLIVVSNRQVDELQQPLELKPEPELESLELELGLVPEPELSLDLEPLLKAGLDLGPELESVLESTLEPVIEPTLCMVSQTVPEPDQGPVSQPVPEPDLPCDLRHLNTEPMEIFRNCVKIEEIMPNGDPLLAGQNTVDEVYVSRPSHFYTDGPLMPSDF
UniProt Q5XX07: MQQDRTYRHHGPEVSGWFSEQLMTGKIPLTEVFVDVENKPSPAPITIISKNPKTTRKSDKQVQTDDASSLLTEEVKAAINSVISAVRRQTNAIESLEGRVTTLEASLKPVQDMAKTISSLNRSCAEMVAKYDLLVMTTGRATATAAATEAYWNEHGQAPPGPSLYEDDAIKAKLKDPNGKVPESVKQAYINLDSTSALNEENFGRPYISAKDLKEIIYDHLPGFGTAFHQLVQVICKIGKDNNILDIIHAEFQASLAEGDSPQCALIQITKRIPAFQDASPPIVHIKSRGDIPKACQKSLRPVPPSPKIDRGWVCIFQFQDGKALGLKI

Legend:
Test in all cases: co-IP
[1] = target: Jak1 with a C-terminal V5-tag (UniProt P23458)
FLAG-tagged STAT1 = FLAG-tagged STAT1 (UniProt P42224)
FLAG-tagged STAT2 = FLAG-tagged STAT2 (UniProt P52630)

FLAG-tagged Sudan Ebola virus VP35 protein (from UniProt Q5XX07 1-329)
binding [1]: no binding

B1: V5-Wnt7A (protein, UniProt O00755 32-349)
chain: LGASIICNKIPGLAPRQRAICQSRPDAIIVIGEGSQMGLDECQFQFRNGRWNCSALGERTVFGKELKVGSREAAFTYAIIAAGVAHAITAACTQGNLSDCGCDKEKQGQYHRDEGWKWGGCSADIRYGIGFAKVFVDAREIKQNARTLMNLHNNEAGRKILEENMKLECKCHGVSGSCTTKTCWTTLPQFRELGYVLKDKYNEAVHVEPVRASRNKRPTFLKIKKPLSYRKPMDTDLVYIEKSPNYCEEDPVTGSVGTQGRACNKTAPQASGCDLMCCGRGYNTHQYARVWQCNCKFHWCCYVKCNTCSERTEMYTCK
binding (FLAG-tagged STAT1): no binding
binding (FLAG-tagged STAT2): no binding
